{"source": "patent US20140100222A1", "about": "“Beta2-ADRENOCEPTOR AGONIST FOR THE TREATMENT OF COUGH” (BOEHRINGER INGELHEIM INTERNATIONAL GMBH, priority 2012, published 2014)", "key": {"[1]": {"test_system": "citric acid induced cough in OVA sensitised guinea pigs", "experiment": "Anti-tussive activity: citric acid induced cough in OVA sensitised guinea pigs (whole body plethysmograph)", "format": "in vivo, guinea pig", "conditions": "first dose without side-effect displaying 70 to 80% efficacy", "protocol": "Animals—Male albino Dunkin-Hartley guinea pigs (350-550 g; Charles River WIGA GmbH, Sulzfeld, Germany) were used. The animals were housed in groups of 6 in solid floor cages and allowed free access to water and standard food. The guinea pigs were kept in rooms maintained at a constant temperature (22° C.±2° C.) and humidity (60%±15%), with a 12 h light cycle. The experiments were approved by the ethical committee Regierungspräsidium Tübingen, Germany.\nOVA asthma model—On days 1 and 2, the guinea pigs were immunised by subcutaneous injection of 0.5 ml per animal of a solution of ovalbumin (OVA) (40 μg/ml) and aluminium hydroxide [Al (OH)3]. […]\nCough recording—Two hours after i.t. application, the citric acid challenge was performed. […] During the challenge, airflow in the chamber was recorded by the Buxco system and analysed for the transient increase in airflow produced by cough, in which rapid inspiration is followed by rapid expiration. The system was able to distinguish coughs from other expiratory responses, and the number of coughs was counted.\nData analysis—Data from the treatment groups were compared with the vehicle group. Data are expressed as mean ±SEM of coughs produced by guinea pigs within each group during a 15 minutes citric acid aerosol exposure. […]"}, "[2]": {"test_system": "acetylcholine induced bronchoconstriction in guinea pigs", "experiment": "Bronchoprotection: acetylcholine induced bronchospasm in anaesthetised guinea pigs (Konzett-Rössler)", "format": "in vivo, guinea pig", "conditions": "for Bronchoconstriction (ml overflow): 2 h before acetylcholine 14 μg/kg i.v., mean", "protocol": "Animal-Male and female Dunkin-Harley guinea pigs were obtained from the Experimental Animal Breeding Centre of Harlan Winkelmann (Germany). After fasting overnight, but with free access to drinking water, animals with body weight of 400-500 g are used. Anesthesia and preparation-The anesthesia was induced by intraperitoneal injection of 50 mg/kg pentobarbital. Anesthesia was prolonged by intravenous infusion of pentobarbital (15 mg/kg/h) via the jugular vein. A tracheal cannula was introduced after tracheotomy for artificial ventilation. The internal jugular vein was cannulated for acetylcholine injection. Instrumentation-Bronchospasm was recorded with a modified version of the method of Konzett-Röβler described by […] et al, 1997. […] Lung resistance was measured as ml of overflow and was recorded, amplified and saved under Notocord files (Notocord-hem, Notocord, France). Blood pressure and heart rate were monitored from a carotid artery in order to check the anesthesia and the variability of the preparation. Experimental protocol-2 hours before acetylcholine challenge, guinea pigs were given the test compound or its vehicle intra-tracheally under a slight isoflurane anesthesia. 30 minutes before acetylcholine challenge, lung resistance and blood pressure were measured under anesthesia. […] Data analysis-Data from the treatment groups were compared with the vehicle group. Data are expressed as mean ±SD of ml of overflow. […] Mean values were statistically analyzed by one-way analysis of variance (ANOVA) followed by the Dunnett's Multiple comparisons Test to evaluate significant differences between groups with p<0.05 being considered significant."}, "cough reflex": {"test_system": "cough reflex", "conditions": "inhaled therapy in asthma, COPD or IPF; therapeutic doses; cited from earlier work"}}, "note": "Marks after values point to notes of the source that are not given here."}
{"smiles": "COc1ccc(CC(C)NCC(O)c2ccc(O)c(NC=O)c2)cc1", "note": "(stereo not drawn) [Formoterol]", "values": [{"measurement": "antitussive Fully Effective Dose (FED)", "setting": "[1]", "result": 3, "unit": "µg/kg"}, {"measurement": "Bronchoconstriction (ml overflow)", "setting": "[2]; 0.1 μg/kg i.t.", "result": 26, "unit": "mL"}, {"measurement": "Bronchoprotection (%)", "setting": "[2]; 0.1 μg/kg i.t., inhibition of acetylcholine bronchoconstriction", "result": 29, "unit": "%"}, {"measurement": "Bronchoconstriction (ml overflow)", "setting": "[2]; 0.3 μg/kg i.t.", "result": 14, "unit": "mL"}, {"measurement": "Bronchoprotection (%)", "setting": "[2]; 0.3 μg/kg i.t., inhibition of acetylcholine bronchoconstriction", "result": "62 * %"}, {"measurement": "Bronchoconstriction (ml overflow)", "setting": "[2]; 1 μg/kg i.t.", "result": 9, "unit": "mL"}, {"measurement": "Bronchoprotection (%)", "setting": "[2]; 1 μg/kg i.t., inhibition of acetylcholine bronchoconstriction", "result": "78 * %"}, {"measurement": "Bronchoconstriction (ml overflow)", "setting": "[2]; 3 μg/kg i.t.", "result": 4, "unit": "mL"}, {"measurement": "Bronchoprotection (%)", "setting": "[2]; 3 μg/kg i.t., inhibition of acetylcholine bronchoconstriction", "result": "89 * %"}, {"measurement": "bronchoprotective FED", "setting": "[2]; first dose without side-effect displaying 80 to 100% efficacy", "result": 3, "unit": "µg/kg"}, {"measurement": "Bronchoprotection (%)", "setting": "[2]; summary, 0.1 μg/kg", "result": 29, "unit": "%"}, {"measurement": "Bronchoprotection (%)", "setting": "[2]; summary, 0.3 μg/kg", "result": 62, "unit": "%"}, {"measurement": "Bronchoprotection (%)", "setting": "[2]; summary, 1 μg/kg", "result": 78, "unit": "%"}, {"measurement": "Bronchoprotection (%)", "setting": "[2]; summary, 3 μg/kg", "result": 89, "unit": "%"}, {"measurement": "effect on cough reflex", "setting": "cough reflex", "result": "display anti-tussive effect"}]}
